Data published in publication PMC6220978, “Induced conformational changes activate the peptidoglycan synthase PBP1B” (Molecular Microbiology, 2018).
No constants are given. Whether binding was seen depends on the method and setting. Some entries that bind do so weakly or less than the wild type.

Assays:
[1] = molecular target: T1, UB2H domain of PBP1B (PBP1B^108–200) (E. coli) (UniProt P02919); assay: NMR titration; chemical shift perturbations on the amide groups of labelled UB2H with unlabelled LpoB; 2D HN-HSQC at 20°C; both purified
T1 sequence: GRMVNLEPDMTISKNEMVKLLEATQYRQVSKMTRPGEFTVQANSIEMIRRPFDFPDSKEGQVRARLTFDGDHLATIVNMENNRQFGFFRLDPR

[2] = molecular target: T1, UB2H domain of PBP1B (PBP1B^108–200) (E. coli); assay: NMR structure; 2 mM [13C,15N]-UB2H with 1.2 molar ratio of unlabelled LpoB, 10 mM Tris/HCl, 200 mM NaCl, pH 7.5, 10% D2O, 20°C; structure of UB2H in the complex; no intermolecular distance detectable; both purified
[3] = molecular target: T2, PBP1B (wild type, PBP1B^46-844) (E. coli) (UniProt P02919); assay: condition: 3.9 nM to 2 μM or 78 nM to 40 μM injected (which range is not told); SPR; PBP1B versions immobilised to the chip surface; CpoB versions injected from either 3.9 nM to 2 μM or from 78 nM to 40 μM; apparent KD by non-linear regression, at least three independent experiments; both purified
T2 sequence: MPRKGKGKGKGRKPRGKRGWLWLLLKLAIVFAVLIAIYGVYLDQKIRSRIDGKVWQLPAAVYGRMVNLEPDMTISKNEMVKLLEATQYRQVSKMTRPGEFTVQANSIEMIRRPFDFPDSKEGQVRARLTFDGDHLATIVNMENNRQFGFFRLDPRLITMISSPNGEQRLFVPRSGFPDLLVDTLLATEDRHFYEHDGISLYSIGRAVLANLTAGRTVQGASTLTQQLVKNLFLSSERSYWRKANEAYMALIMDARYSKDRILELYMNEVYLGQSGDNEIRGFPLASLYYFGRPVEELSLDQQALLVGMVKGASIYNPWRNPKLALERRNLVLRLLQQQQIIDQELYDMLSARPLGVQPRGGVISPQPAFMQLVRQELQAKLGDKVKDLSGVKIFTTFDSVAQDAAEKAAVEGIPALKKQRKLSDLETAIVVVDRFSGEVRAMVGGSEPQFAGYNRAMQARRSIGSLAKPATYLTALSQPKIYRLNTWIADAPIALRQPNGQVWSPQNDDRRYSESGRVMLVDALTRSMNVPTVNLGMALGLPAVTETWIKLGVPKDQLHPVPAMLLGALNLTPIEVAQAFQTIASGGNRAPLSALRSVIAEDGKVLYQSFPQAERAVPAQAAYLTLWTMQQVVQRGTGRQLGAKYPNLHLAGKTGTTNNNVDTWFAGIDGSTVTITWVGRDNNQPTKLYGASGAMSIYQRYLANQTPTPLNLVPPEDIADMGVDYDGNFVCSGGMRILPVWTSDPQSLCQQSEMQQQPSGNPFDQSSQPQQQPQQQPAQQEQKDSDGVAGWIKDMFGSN

PBP1B^Δ158–160 = molecular target: T3, PBP1B^Δ158–160 (E. coli, UniProt P02919 46-844, Δ158–160); assay: as above
T3 construct: PBP1B, E. coli, residues 46-844 with residues 158-160 of Loop 1 removed, made by mutagenesis of pDML924; also called Loop 1 truncation; source: E. coli BL21(DE3), purified (membrane extract, HisTrap, thrombin, HiTrap SP ion exchange)
T3 sequence (looked up): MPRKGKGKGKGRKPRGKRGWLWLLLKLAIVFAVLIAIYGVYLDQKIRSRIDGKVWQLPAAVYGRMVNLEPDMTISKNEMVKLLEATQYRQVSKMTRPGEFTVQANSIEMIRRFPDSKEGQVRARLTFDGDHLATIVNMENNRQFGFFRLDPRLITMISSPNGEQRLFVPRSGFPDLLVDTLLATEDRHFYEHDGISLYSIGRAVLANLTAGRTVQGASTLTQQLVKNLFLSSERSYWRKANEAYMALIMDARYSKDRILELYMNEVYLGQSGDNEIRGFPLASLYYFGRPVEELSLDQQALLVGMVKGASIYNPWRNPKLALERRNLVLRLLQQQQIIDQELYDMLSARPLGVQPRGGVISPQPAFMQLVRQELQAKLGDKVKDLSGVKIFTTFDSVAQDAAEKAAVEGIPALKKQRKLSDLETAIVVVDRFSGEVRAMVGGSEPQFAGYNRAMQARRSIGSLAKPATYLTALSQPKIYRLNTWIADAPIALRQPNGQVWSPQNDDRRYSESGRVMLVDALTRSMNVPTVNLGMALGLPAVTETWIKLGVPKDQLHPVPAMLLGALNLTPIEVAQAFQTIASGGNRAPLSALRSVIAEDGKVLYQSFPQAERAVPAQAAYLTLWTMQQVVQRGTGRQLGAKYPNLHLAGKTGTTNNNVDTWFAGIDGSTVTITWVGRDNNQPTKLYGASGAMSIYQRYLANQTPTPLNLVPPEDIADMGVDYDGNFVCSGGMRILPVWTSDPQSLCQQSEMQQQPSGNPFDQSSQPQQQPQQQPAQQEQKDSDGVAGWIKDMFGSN

B1: LpoB (natural protein, E. coli)
chain: VGQREPAPVEEVKPAPEQPAEPQQPVPTVPSVPTIPQQPGPIEHEDQTAPPAPHIRHYDWNGAMQPMVSKMLGADGVTAGSVLLVDSVNNRTNGSLNAAEATETLRNALANNGKFTLVSAQQLSMAKQQLGLSPQDSLGTRSKAIGIARNVGAHYVLYSSASGNVNAPTLQMQLMLVQTGEIIWSGKGAVSQQ
notes: LpoB, E. coli; also called lipoprotein LpoB; source: E. coli BL21(DE3), purified (HisTrap, Superdex 200), as in Egan et al. 2014
binding [1]: binds | binding [2]: binds

B2: CpoB^CC (CpoB^27-109), N-terminal coiled-coil domain of CpoB (domain or fragment, UniProt P45955 27-109)
chain: QAPISSVGSGSVEDRVTQLERISNAHSQLLTQLQQQLSDNQSDIDSLRGQIQENQYQLNQVVERQKQILLQIDSLSSGGAAAQ
binding [3]: no binding

B3: CpoB (full length) (natural protein, E. coli, UniProt P45955 27-263, looked up)
chain: QAPISSVGSGSVEDRVTQLERISNAHSQLLTQLQQQLSDNQSDIDSLRGQIQENQYQLNQVVERQKQILLQIDSLSSGGAAAQSTSGDQSGAAASTTPTADAGTANAGAPVKSGNANTDYNAAIALVQDKSRQDDAMVAFQNFIKNYPDSTYLPNANYWLGQLNYNKGKKDDAAYYFASVVKNYPKSPKAADAMFKVGVIMQDKGDTAKAKAVYQQVISKYPGTDGAKQAQKRLNAM
notes: CpoB, E. coli; The coiled-coil construct begins at residue 27, so the purified 'full length' protein may lack the signal peptide (surmise); source: E. coli BL21(DE3), purified (HisTrap, Superdex 200), as in Gray et al. 2015
binding (PBP1B^Δ158–160): no binding
